Laboratory results from PubChem BioAssay AID1508600 (Functional Genomics Laboratory (NCATS/FGL), 2020).
Among all 53,000 sequences or so, about 3,700 (7%) were called active.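 The calls were made as follows: active = gene knockdowns whose robust z-score for IL-1 alpha signal is at least 2 or at most -2, so actives lie on both sides; inactive = the rest.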 This is one part of the list.

Test: Components of the Cytosolic LPS Sensing Pathway: Gene Identification via Genome-wide siRNA Screen;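 also: robust z of the log signal after scaling to non-targeting control siRNA wells of the plate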
Conditions: RAW264.7 macrophages, IL-1a HTRF, actives lie on both sides, screened at 100 nM (by protocol), cells primed 5 h with Pam3CSK4 first
Procedure, shortened: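 RAW264.7 mouse macrophages reverse-transfected with single siRNAs (100 nM final) for 48h, primed with Pam3CSK4 for 5 hours, then transfected with LipidA for 24 hour. Supernatant IL-1a read by HTRF; values normalized to negative-control median, log-transformed robust z-scores.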
In the case of GGAGACUCAGGAAAAAAUUTT against Olfr1424, the z-score is reported as inactive: -0.408.
In the case of CCGUAGACUCGGUGAAGCUTT against Plpbp, the z-score is reported as inactive: -0.143.
With “GGUAACGAUCCACUUAAAGTT against 0610040J01Rik” the z-score was inactive: 0.264.
In the case of CCUACGUGCACAUUUGUUUTT against Erap1, the z-score is reported as inactive: 0.415.
With GGUGAGCAAGUCGAAGAGATT against Igsf3 the z-score was inactive: 0.849.
With GGACUUGGAAAAUAAGGAATT against Usp38 the z-score was inactive: -0.159.
In the case of CCUUGCACGACAUUUUACUTT against Idnk, the z-score is reported as inactive: 0.313.
With GCCAAACACUUUAUGCGACTT against Ndst4 the z-score was inactive: 0.711.
For GGACUUUAAUCACAGACAATT against Fem1b, the z-score was inactive: -1.73.
In the case of GGAACCACUGCUUUCAAAATT against Cd36, the z-score is reported as inactive: 0.83.
With GGCACAGAUACAUCAAAUATT against Spag9 the z-score was inactive: 0.777.
For GGUUGUGUUGCUAAUCUUUTT against Tbpl2, the z-score was inactive: -0.914.
With GGCAGCUAAGAAUGGAGCATT against Gde1 the z-score was inactive: 1.29.
In the case of GGAAAUCUUGGCAGUUUCCTT against Ercc8, the z-score is reported as inactive: 0.0594.
In the case of GGCGAUUUUGUGACUUCGUTT against Ptgr2, the z-score is reported as inactive: -0.0904.
In the case of GGAUAUUUGUGUUCCUAAGTT against Vmn1r193, the z-score is reported as inactive: -0.683.
In the case of GGUUCCUUCUUCAUCUUCCTT against Cysrt1, the z-score is reported as inactive: -1.07.
With GCAGUAAAUGUCCCAUCCGTT against Caskin1 the z-score was inactive: -1.28.
With GGAUCCUGUCCACAAGCACTT against Astn1 the z-score was inactive: 0.519.
With “CCCUGAUUGCAUCCUGUUATT against A430093F15Rik” the z-score was inactive: 0.249.
With GGGCCAACCAACGAAAUGUTT against Uba1y the z-score was inactive: 0.667.
With CCAGUCAACAAGAAUCAGATT against Rptn the z-score was inactive: -0.105.
For CGAAACCAACAGUUAGAAGTT against Cby1, the z-score was inactive: 0.71.
With GGUAGCUCUGAGACAAUUCTT against Pkhd1l1 the z-score was inactive: 0.857.
For GGCAAUGUAUUAAUUACAGTT against Otc, the z-score was inactive: 0.219.
For GCCCGACAUAGAAUUCACCTT against Ncor2, the z-score was inactive: 0.563.
For GGAAACAAGGAAGCAAUUATT against Psmd1, the z-score was active: -3.01.
In the case of “GGACGAGGAAAAGUCAUCATT against 4930579C12Rik”, the z-score is reported as inactive: -0.0701.
With CCUGAUGUUUACUAUAAACTT against Atp6v1g3 the z-score was inactive: -0.679.
